The text below walks through data of PubChem BioAssay AID1665 (Sanford-Burnham Center for Chemical Genomics, 2009).

Molecules are shown by their SMILES. Several values for one entry are separate records, joined by “and”; a condition that tells them apart may be missing. Equal entries are not always repeated. Some of the results follow. Some salts or complexes appear as unconnected parts, following the source record.

A short description of the test: modulators of beta-catenin nuclear translocation, primary screen, imaging, HeLa cells, immunofluorescence, high-content (AID 1665). The note with it: measured here: cell count, cytotoxicity flag, at 5 µM.
`O=C(O)CNc1ccc([As](=O)(O)O)cc1`: the cell count worked out at 1200 cells.
The compound `O=[N+]([O-])c1cccc(NC2=NCC(CBr)S2)c1` (stereo not given) displayed a cell count of 1350 cells.
The result for `O=[N+]([O-])c1ncn(CCn2ncnc2[N+](=O)[O-])n1` reads 1100 cells.
Take `CC(C)(C)C(=O)NC(Sc1ccncn1)C(Cl)(Cl)Cl` (stereo not given): the cell count was determined as 1300 cells.
As to `CP(=O)(OC12CC3CC(CC(C3)C1)C2)OC12CC3CC(CC(C3)C1)C2`, the cell count is 1190 cells.
`O=C(Nc1cc([As](=O)(O)O)ccc1O)c1ccccc1` displayed a cell count of 1160 cells.
Take `CCOC(=O)c1ccc(NP(C)(=O)Oc2ccc(Cl)cc2)cc1` (stereo not given): the cell count worked out at 941 cells.
The figure for `CC1CCN(C(=O)Oc2c(Cl)cc(Cl)c3cccnc23)CC1` is 1240 cells; for `CN(C)C(=O)OCCc1n(C)cc[n+]1C` it is 967 cells.
The result for `CC(C)=N/N=C(\N)N[N+](=O)[O-]` reads 1480 cells; that for `CN(C)C(=O)c1c([N+](=O)[O-])cc([N+](=O)[O-])cc1[N+](=O)[O-]`, 1100 cells.
In turn, `CP(=O)(Nc1ccc(Cl)cc1)Oc1ccc(F)cc1` (stereo not given) yielded a cell count of 1380 cells.
`CCN(/C(=N/P(=O)(N1CCOCC1)N1CCOCC1)N1CCOCC1)c1ccc(OC)cc1`: the cell count was determined as 1080 cells.
The result for `C[N+]1=C2C=CC=CC=C2SC12C([N+](=O)[O-])=CC([N+](=O)[O-])=C[C-]2[N+](=O)[O-]` (stereo not given) reads 1390 cells; that for `Nc1ccc([As](=O)(O)c2ccc(N)cc2)cc1`, 1110 cells; that for `CC(C)(C)c1ccc(OP(C)(=O)O)cc1`, 958 cells.
The result for `COc1ccccc1OP(C)(=O)Nc1ccccc1Br` (stereo not given) reads 1070 cells; that for `O=[N+]([O-])c1cc([N+](=O)[O-])c(CCNc2ccccc2)c([N+](=O)[O-])c1`, 473 cells; that for `CCc1nc2c(n1)c1c(non1O)c1c2no[n+]1[O-]`, 1360 cells.
Consider `CCc1ccc(OP(C)(=O)Nc2cccnc2)cc1` (stereo not given), for which the cell count stood at 1110 cells.
The result for `CP(=O)(Oc1ccccc1)N1CCOC1=O` (stereo not given) reads 785 cells; that for `Cc1ccc(NP(=O)(Oc2ccccc2)Oc2ccccc2)nc1`, 1160 cells.
The figure for `O=C(OCCCN1CCCC1)C(O)(c1ccccc1)C1CCCCC1` (stereo not given) is 1300 cells; for `COc1ccccc1OP(C)(=O)Nc1c(C)n(C)n(-c2ccccc2)c1=O` (stereo not given) it is 892 cells; for `O=[N+]([O-])c1cccc2n[nH]nc12` it is 1180 cells.
The result for `COc1ccc(C2=NCC(CBr)S2)cc1` (stereo not given) reads 1150 cells.
Compound `CCN(CC)CC(O)COC(=O)C(O)(c1ccccc1)C1CCCCC1` (stereo not given) showed a cell count of 978 cells.
The result for `CCc1ccc(OP(C)(=O)O)cc1` reads 1420 cells.
In the case of `COc1ccccc1OP(C)(=O)Nc1ccc(C)cc1C` (stereo not given), the cell count stood at 1370 cells.
Compound `CP(=O)(Nc1ccccn1)Oc1ccccc1` (stereo not given) gave a cell count of 1090 cells.
The result for `Cc1c2non([O-])c-2c(C)[n+](=O)[n+]1[O-]` reads 716 cells; that for `O=C(NC(Sc1ccncn1)C(Cl)(Cl)Cl)c1ccccc1` (stereo not given), 1010 cells.
Compound `O=[N+]([O-])c1cc([N+](=O)[O-])c(Nc2ccccn2)c([N+](=O)[O-])c1` returned a cell count of 985 cells.
In the case of `Nc1cc(N)c2nonc2c1[N+](=O)[O-]`, the cell count is 1330 cells.
`Cc1c(NP(C)(=O)Oc2ccc(C(C)C)cc2)c(=O)n(-c2ccccc2)n1C` (stereo not given) yielded a cell count of 1340 cells.
The result for `CN(C)CCOC(=O)C(O)(c1ccccc1)C1CCCC1` (stereo not given) reads 1190 cells.
`Clc1ccc(Cl)c(NC2=NCC(CBr)S2)c1` (stereo not given) had a cell count of 1150 cells.
The result for `CN1CCCC(OC(=O)C(c2ccccc2)c2ccccc2)C1` (stereo not given) reads 553 cells; that for `Cc1ccc(OP(=O)(Nc2nccs2)Oc2ccc(C)cc2)cc1`, 1390 cells.
The result for `COc1ccccc1OP(=O)(Nc1ccc(C)cn1)Oc1ccccc1OC` reads 947 cells; that for `Cc1ccc(N/C(=N/P(=O)(N2CCOCC2)N2CCOCC2)N2CCOCC2)cc1`, 1140 cells.
The result for `COc1ccccc1OP(C)(=O)Nc1ccc(Br)cc1` (stereo not given) reads 1370 cells; that for `NC(=O)c1cc([N+](=O)[O-])cc([N+](=O)[O-])c1N`, 1090 cells.
Compound `CP(=O)(OCCOc1ccccc1)OCCOc1ccccc1` returned a cell count of 1070 cells.
The result for `CP(=O)(Nc1ccc(Cl)cc1Cl)Oc1ccccc1` (stereo not given) reads 1090 cells; that for `Nc1cccc2ccc([As](=O)(O)O)cc12`, 1220 cells; that for `CCN(N=Nc1nonc1N)c1nonc1N`, 1070 cells.
The result for `Cc1nc2ccc3ccccc3c2o1.O=[N+]([O-])c1cc([N+](=O)[O-])c(O)c([N+](=O)[O-])c1` reads 807 cells; that for `COc1ccc(OP(C)(=O)Nc2ccccc2Br)cc1` (stereo not given), 1180 cells; that for `Cc1ccc(NP(=O)(Oc2ccccc2F)Oc2ccccc2F)nc1`, 1350 cells.
The result for `COc1ccccc1OP(C)(=O)Nc1ccc(C)c(C)c1` (stereo not given) reads 1180 cells.
On to `CCOP(=O)(Nc1ccccc1)OCC`, for which the cell count is 1130 cells and 1270 cells.
The result for `Cc1cc(SC(NC(=O)c2ccc(F)cc2)C(Cl)(Cl)Cl)ncn1` (stereo not given) reads 1160 cells.
For `Cc1cc(C)cc(OP(C)(=O)Nc2cccc(C(F)(F)F)c2)c1` (stereo not given), the cell count is 845 cells.
Consider `O=P(Nc1nc2ccc(Cl)cc2s1)(c1ccccc1)c1ccccc1`, for which the cell count came out at 1300 cells.
With `O=C(O)c1ccccc1[As](=O)(O)O`, the cell count came to 1120 cells.
The figure for `CC(=O)Nc1ccc([As](=O)(O)O)cc1` is 1180 cells; for `CN(C)C(=O)Oc1noc2ccccc12` it is 1380 cells; for `O=c1c2cc([N+](=O)[O-])ccc2[nH]c2c([N+](=O)[O-])cc([N+](=O)[O-])cc12` it is 596 cells.
For the compound `CCCCCOc1ccc(NP(C)(=O)Oc2ccc(Cl)cc2Cl)cc1` (stereo not given), the cell count came out at 1330 cells.
On to `Cc1ccccc1OP(=O)(Nc1ccccn1)Oc1ccccc1C`, for which the cell count was found to be 1320 cells.
The figure for `CP(=O)(Nc1ccccc1)Oc1ccc(F)cc1` (stereo not given) is 1370 cells; for `CCN(CC)CCCOC(=O)C(O)(c1ccccc1)C1CCCCC1` (stereo not given) it is 535 cells; for `Cc1ccc(OP(=O)(Nc2ccccn2)Oc2ccc(C)cc2)cc1` it is 1050 cells.
The result for `CC(=O)NC(SC(=S)N(CC(C)C)CC(C)C)C(Cl)(Cl)Cl` (stereo not given) reads 580 cells.
The result for `COC(=O)c1cc2c(s1)N=C(c1ccccc1)N(C)P2(=O)N1CCOCC1` (stereo not given) reads 1440 cells; that for `COc1ccc(OP(C)(=O)Nc2ccc(SC(F)(F)F)cc2)cc1` (stereo not given), 1100 cells; that for `CCOC(=O)c1ccc(NP(C)(=O)Oc2ccc(F)cc2)cc1` (stereo not given), 477 cells.
`CCOC(=O)NC(Sc1ccccc1)C(Cl)(Cl)Cl` (stereo not given) had a cell count of 1330 cells.
The figure for `Cc1ccc(NP(=O)(Oc2cccc(C)c2)Oc2cccc(C)c2)nc1` is 1350 cells.
`c1ccc(-c2nn[nH]n2)c(-c2nn[nH]n2)c1` came in with a cell count of 1100 cells.
The result for `O=C(NC1CCS(=O)(=O)C1)NP(=S)(Oc1ccccc1)Oc1ccccc1` (stereo not given) reads 1040 cells; that for `CCNC(=S)/N=C(\N)N[N+](=O)[O-]`, 1480 cells; that for `CC(=O)Nc1ccc(Oc2c([N+](=O)[O-])cc([N+](=O)[O-])cc2[N+](=O)[O-])cc1`, 1150 cells.
The figure for `COc1ccc2c(c1O)-c1c(O)c(OC)cc3c1[C@H](C2)[N+](C)(C)CC3.O=[N+]([O-])c1cc([N+](=O)[O-])c([O-])c([N+](=O)[O-])c1[O-]` is 1110 cells.
